Experimental data reported in doi:10.1101/2023.05.24.542135.
No constants are given. Whether binding was seen depends on the method and setting. Binding seen in cells or lysates may run through a third protein. Here binding means that the protein was enriched with, or labelled near, the bait; the list need not be complete.

Amino acid sequences for entries named in this document (tags omitted). Residues count along the entry.
UniProt Q2TV84: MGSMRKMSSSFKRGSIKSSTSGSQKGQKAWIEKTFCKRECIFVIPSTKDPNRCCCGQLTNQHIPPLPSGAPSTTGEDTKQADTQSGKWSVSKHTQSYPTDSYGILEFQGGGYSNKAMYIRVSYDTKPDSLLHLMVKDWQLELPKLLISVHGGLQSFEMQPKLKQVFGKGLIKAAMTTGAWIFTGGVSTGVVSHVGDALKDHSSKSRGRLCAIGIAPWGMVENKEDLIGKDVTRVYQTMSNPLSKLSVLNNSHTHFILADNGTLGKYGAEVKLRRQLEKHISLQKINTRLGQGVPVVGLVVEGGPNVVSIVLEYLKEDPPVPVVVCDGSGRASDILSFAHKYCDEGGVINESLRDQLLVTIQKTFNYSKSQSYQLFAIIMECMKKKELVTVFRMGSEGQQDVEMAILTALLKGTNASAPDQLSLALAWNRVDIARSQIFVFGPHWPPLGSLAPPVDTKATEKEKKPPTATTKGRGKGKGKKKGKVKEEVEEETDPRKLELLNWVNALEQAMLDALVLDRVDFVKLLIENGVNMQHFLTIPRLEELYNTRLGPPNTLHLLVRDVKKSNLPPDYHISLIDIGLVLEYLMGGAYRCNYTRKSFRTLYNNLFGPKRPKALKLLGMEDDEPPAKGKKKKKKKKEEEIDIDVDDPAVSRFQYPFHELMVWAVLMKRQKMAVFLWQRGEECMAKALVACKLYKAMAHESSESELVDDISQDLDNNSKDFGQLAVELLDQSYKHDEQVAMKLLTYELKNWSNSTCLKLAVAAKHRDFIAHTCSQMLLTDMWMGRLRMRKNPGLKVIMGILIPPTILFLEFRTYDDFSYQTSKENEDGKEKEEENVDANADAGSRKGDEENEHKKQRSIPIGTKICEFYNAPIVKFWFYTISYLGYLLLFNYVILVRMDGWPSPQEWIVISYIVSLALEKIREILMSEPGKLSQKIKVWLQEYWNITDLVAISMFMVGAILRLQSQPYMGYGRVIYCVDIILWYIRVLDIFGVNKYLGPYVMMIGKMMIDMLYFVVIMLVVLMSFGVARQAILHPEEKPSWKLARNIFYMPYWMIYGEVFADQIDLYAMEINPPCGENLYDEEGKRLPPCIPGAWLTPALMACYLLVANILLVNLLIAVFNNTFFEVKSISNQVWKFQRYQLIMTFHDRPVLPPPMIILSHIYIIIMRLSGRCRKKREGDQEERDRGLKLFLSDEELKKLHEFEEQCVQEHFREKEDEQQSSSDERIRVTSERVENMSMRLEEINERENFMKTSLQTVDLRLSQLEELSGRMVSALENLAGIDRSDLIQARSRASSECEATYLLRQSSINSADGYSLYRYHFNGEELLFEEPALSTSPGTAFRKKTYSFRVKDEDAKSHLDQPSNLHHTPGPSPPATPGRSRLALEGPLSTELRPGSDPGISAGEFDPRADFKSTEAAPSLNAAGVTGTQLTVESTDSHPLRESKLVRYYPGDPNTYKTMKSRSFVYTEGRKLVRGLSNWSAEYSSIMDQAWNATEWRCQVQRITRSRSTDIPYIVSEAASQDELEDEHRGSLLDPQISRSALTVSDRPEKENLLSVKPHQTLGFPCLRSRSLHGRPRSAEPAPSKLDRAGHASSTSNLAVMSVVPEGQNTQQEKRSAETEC
UniProt E9PY61, residues 28-2293: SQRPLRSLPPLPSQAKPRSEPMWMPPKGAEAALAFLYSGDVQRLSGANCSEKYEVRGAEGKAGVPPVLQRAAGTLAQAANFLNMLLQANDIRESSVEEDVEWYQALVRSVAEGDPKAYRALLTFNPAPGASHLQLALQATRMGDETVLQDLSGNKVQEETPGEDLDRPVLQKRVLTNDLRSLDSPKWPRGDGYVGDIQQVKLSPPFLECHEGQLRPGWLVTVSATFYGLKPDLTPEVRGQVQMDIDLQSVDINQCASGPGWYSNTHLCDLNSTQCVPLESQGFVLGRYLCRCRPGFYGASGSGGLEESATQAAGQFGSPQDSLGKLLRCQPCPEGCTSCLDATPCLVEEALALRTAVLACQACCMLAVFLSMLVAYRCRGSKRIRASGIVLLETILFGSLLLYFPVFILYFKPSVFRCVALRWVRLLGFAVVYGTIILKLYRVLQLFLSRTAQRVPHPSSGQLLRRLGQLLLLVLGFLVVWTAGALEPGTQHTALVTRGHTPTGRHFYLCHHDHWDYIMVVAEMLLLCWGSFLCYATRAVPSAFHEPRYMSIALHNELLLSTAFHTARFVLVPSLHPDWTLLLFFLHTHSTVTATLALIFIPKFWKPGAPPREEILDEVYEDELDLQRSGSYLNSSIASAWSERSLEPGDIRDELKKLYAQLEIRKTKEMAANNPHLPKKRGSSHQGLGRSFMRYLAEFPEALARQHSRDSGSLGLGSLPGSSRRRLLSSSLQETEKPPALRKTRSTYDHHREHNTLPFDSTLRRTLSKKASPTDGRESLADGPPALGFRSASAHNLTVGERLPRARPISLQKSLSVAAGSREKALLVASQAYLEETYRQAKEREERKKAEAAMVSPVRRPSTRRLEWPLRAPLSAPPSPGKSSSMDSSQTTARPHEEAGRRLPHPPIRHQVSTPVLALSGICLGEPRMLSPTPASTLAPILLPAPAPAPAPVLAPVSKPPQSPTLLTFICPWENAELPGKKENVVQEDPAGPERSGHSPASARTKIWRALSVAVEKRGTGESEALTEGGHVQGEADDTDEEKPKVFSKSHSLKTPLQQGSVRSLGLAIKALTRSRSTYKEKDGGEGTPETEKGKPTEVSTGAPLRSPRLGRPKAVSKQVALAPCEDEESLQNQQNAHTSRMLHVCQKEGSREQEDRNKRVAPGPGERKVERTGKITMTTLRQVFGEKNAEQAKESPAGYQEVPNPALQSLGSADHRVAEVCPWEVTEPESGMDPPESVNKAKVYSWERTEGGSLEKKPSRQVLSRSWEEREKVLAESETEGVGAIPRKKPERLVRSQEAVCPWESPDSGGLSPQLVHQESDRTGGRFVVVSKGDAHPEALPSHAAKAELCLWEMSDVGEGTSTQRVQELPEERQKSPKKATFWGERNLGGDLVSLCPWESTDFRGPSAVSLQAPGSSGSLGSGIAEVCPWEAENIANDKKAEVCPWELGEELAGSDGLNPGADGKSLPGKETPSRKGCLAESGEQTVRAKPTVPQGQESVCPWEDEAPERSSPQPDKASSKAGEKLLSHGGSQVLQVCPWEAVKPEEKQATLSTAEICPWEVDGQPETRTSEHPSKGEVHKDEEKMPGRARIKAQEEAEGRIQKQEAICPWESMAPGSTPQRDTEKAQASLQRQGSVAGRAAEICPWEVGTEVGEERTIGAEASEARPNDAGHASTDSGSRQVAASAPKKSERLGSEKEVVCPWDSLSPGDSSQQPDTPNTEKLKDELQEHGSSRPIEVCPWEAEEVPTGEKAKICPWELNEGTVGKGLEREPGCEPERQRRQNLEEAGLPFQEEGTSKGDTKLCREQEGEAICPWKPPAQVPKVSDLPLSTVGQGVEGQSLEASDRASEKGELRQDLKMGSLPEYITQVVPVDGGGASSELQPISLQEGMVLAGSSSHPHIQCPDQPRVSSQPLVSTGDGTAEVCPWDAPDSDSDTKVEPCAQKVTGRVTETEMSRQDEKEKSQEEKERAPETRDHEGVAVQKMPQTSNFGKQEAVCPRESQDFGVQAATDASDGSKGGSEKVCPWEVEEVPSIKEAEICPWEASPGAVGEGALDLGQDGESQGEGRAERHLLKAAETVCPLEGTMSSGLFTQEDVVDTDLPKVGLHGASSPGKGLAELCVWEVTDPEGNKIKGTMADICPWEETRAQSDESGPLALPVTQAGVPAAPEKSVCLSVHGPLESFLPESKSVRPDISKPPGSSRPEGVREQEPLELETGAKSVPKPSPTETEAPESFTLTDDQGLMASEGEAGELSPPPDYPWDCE

Molecular target: TRPM1 (mouse (endogenous in mouse retina)) (UniProt Q2TV84)
Assay: affinity purification with mass spectrometry

With GPR179 (from UniProt E9PY61 28-2293) the binding was “binds”.

B1: LRFN2 (leucine rich repeat and fibronectin type III domain containing 2) (protein, UniProt Q80TG9 21-788)
chain: CPKYCVCQNLSESLGTLCPSKGLLFVPPDIDRRTVELRLGGNFIIHIGRQDFANMTGLVDLTLSRNTISHIQPFSFLDLESLRSLHLDSNRLPSLGEDTLRGLVNLQHLIVNNNQLGGIADDAFEDFLLTLEDLDLSYNNLHGLPWDSVRRMVNLHQLSLDHNLLDHIAEGTFADLQKLARLDLTSNRLQKLPPDPIFARSQASLLTATPFAPPLSFSFGGNPLHCNCELLWLRRLERDDDLETCGSPGSLKGRYFWHIREEEFVCEPPLITQHTHKLLVLEGQAATLKCKAIGDPSPLIHWVAPDDRLVGNSSRTAVYDNGTLDILITTSQDSGPFTCIAANAAGEATATVEVSIVQLPHLSNSTSRMAPPKSRLSDITGSSKTSRGGGGSGAGEPPKSTPERAVLVSDVTTTSALVKWSVSKSAPRVKMYQLQYNCSDDEVLIYRMIPASNKAFVVNNLVSGTGYDLCVLAMWDDTATTLTATNIVGCAQFFTKADYPQCQSMHSQILGGTMILVIGGIIVATLLVFIVILMVRYKVCNHDTPGKMAAATVSNVYSQTNGSQPPPLGGIPVGQLPQAPPKVVVRNELMDFSTSLARACDSSSSSSLGSGEAAGLGRGPWRLPPPAPRPKPSLDRLMGAFASLDLKSQRKEELLDSRTPAGRGAGTSSRGHHSDREPLLGPPATRARSLLPLPLEGKAKRSHSFDMGDFAAAAAAVPGGYSPPRRVSNIWTKRSLSVNGMLLPFEESDLVGARGTFGSSEWVMESTV
In the case of B1, the binding is reported as “binds”.
